“And” between values parts separate entries of the source, which are not always exact repeats. Equal values may be shown once. The list shows a part of the results. The main result of the screen is listed elsewhere. These columns were measured beside it and carry no call. The list favours compounds with an active or inconclusive main result. The note in brackets gives the kind of curve behind each potency; many fits are weak.
Assay: qHTS Assay for Modulators of Lamin A Splicing
Details: HeLa LMNA splicing GFP/RFP minigene ratio, 48 h
From the text: NCGC Assay Overview: Hutchinson-Gilford Progeria Syndrome (HGPS) is a pediatric premature aging disease caused by a spontaneous mutation in the lamin A/C (LMNA) gene. The mutation activates a cryptic splice site in the LMNA pre-mRNA which results in production of a pre-lamin A protein that cannot be processed properly. The mutant protein accumulates in the nucleus and negatively affects numerous cellular functions. Correction of the splicing defect in HGPS patient cells using a targeted oligonucleotide (exo11) leads to reversal of the cellular disease phenotypes. To identify small molecule modulators of aberrant LMNA splicing, a homogenous assay was constructed in HeLa cells that used a GFP containing minigene to report on correction of aberrant splicing in lamin A and a RFP (DsRed2) to report on cell viability, uniformity and nonspecific effects on the assay signal. This assay was adapted to laser-scanning microplate cytometry (Acumen, TTP Labtech) where miniaturization of the assay to a 1,536-well plate format was possible. References: Bowen, W. P.; Wylie, P. G. Application of Laser-Scanning Fluorescence Microplate Cytometry in High Content Screening. Assay Drug Dev Technol 2006;4:209-221. Scaffidi P, Misteli T. Reversal of the cellular phenotype in the premature aging disease Hutchinson-Gilford progeria syndrome. Nat.
NCGC Assay Protocol Summary: Reagents/Controls: Stable clones expressing DsRed2 and lamin A-EGFP were generated by Cell and Molecular Technologies in S3 HeLa cells. HeLa cells were prepared for the assay when they were 70-90% confluent. The cells were counted and resuspended in Opti-MEM I (no phenol red; Gibco), 2% FBS, 1% penicillin/ streptomycin (Gibco) at concentration of 120 cells/uL concentration. The suspension was passed through a Falcon basket filter with pore size 40um (Beckton Dickson). Control titrations: column […] 1536-well plate contained a sixteen point titration (1:2 dilutions) in duplicate of ancitabine (Sigma: A8598) beginning at 40 uM final concentration. Column 2 contained a sixteen point titration (1:2 dilutions) of cycloheximide beginning at 1.4 mM final concentration. Column 3 contained ancitabine at 40 uM and column 4 contained was the vehicle control (0.5% DMSO final concentration). Assay Steps: 5 uL of HeLa cells were plated in Aurora LoBase black clear bottom (cyclic-olefin polymer) 1536-well plates at a final density of 600 cells/well. Controls and library compounds were added with a 1536-well pin array using the Kalypsys pin-tool. The plates were then incubated for 48 hrs in a cell-culture incubator (37 °C; 5% CO2, 98% humidity). Following incubation the plates were read on the Acumen Explorer using the 488 nm laser. Data was collected on objects between 10 and 100 um in size. Cell objects were defined by a 15 um width x 10 um depth filter. The ratio of the total object intensity in PMT1 (500-530 nm emission; GFP) over PMT3 (575-640 nm emission; RFP) was calculated for analysis. Keywords: NIH Roadmap, MLSCN, MLI, MLSMR, qHTS, NCGC, lamin A, Progeria, RNA splicing.

[1] = measured here: RFP viability control channel
[2] = measured here: GFP splicing reporter channel

SMILES | AC50 [1] | AC50 [2]
Cc1ccc(NC(=O)Cn2c(=O)oc3ccccc32)cc1C | 1.12 µM [falling, full curve] | 
CN(C)[C@@H]1C(=O)C(C(N)=O)=C(O)[C@@]2(O)C(=O)C3=C(O)c4c(O)cccc4[C@@](C)(O)[C@H]3[C@H](O)[C@@H]12 | 0.000794 µM [rising, full curve, poor fit] | 
CCOC(=O)C(NC(C)=O)C(OC(C)=O)c1cccc(N(CCCl)CCCl)c1 (stereo not given) | 12.6 µM [rising, single point] | 
CN(C(=O)CNC(=O)OCc1ccccc1)c1ccc(Br)cc1C(=O)c1ccccc1Cl | 20 µM [rising, single point] | 
CN1C(=O)CCS(=O)(=O)C1c1ccc(Cl)cc1 (stereo not given) | 35.5 µM [falling, single point] and 5.62 µM [falling, single point] | 35.5 µM [falling, single point]
O=C(CSC1c2ccccc2-c2ccccc21)N/N=C/c1ccccc1C(=O)O | 0.447 µM [falling, partial curve] | 
C[C@]12C=CC(=O)C=C1CC[C@@H]1C2CC[C@]2(C)OC(=O)CCC12 (stereo not given in full) | 35.5 µM [falling, single point] | 1.58 µM [falling, partial curve, poor fit]
Cc1nc2c(C(=O)N3CCC4(CC3)OCCO4)cnn2c(C)c1Cc1cccc(Cl)c1 |  | 3.16 µM [rising, single point]
N#CSCC(=O)N1c2ccccc2CCc2ccccc21 | 28.2 µM [rising, single point] | 
CNC1CC(N)[C@H](O)[C@@H](O[C@@H]2OC(CO)C3OC4(OC(C(N)CO)C(O)C(O)C4O)O[C@@H]3[C@H]2O)C1O (stereo not given in full) | 0.708 µM [rising, full curve] | 14.1 µM [rising, partial curve]
COc1cccc(N2C(=O)NC(=O)/C(=C\c3ccc([N+](=O)[O-])s3)C2=O)c1 | 0.00891 µM [rising, full curve, poor fit] | 
Cc1c(C=O)c2ccccc2n1Cc1ccc([N+](=O)[O-])cc1 | 17.8 µM [rising, single point] | 12.6 µM [rising, single point]
O=C(O)[C@@H]1CCN1 | 5.62 µM [falling, single point] | 0.01 µM [falling, full curve, poor fit]
CCN(CC)C(=O)N[C@@H]1C[C@H]2c3cccc4[nH]cc(c34)C[C@@H]2N(C)C1 | 3.16 µM [falling, single point] | 
Cc1cccc(CN2CC=C(c3noc(CCC(=O)Nc4ccc(C)c(F)c4)n3)CC2)c1 | 0.708 µM [falling, single point] | 
COC(=O)[C@@H]1[C@@H](C(=O)OC)C2(c3ccccc3-c3ccccc32)N(c2ccc(Cl)cc2)N1C#N |  | 3.16 µM [falling, single point]

SMILES | AC50 [1] | AC50 [2]
COc1ccc(C[C@@H]2NC[C@H](O)[C@@H]2OC(C)=O)cc1 | 0.0631 µM [falling, full curve] | 0.0708 µM [falling, full curve]
COc1ccc(NC(=O)c2sc3nc4c(cc3c2N)N2CCC4CC2)cc1OC |  | 11.2 µM [falling, partial curve, poor fit]
Cc1ccc(-n2c(/C=C\c3ccc(F)cc3)nc3ccccc3c2=O)cc1Cl | 0.0126 µM [rising, full curve, poor fit] | 
CC(Oc1ccccc1)C(=O)Nc1ccc(C(=O)OCc2cc(=O)n3nc(C4CC4)sc3n2)cc1 (stereo not given) | 2.24 µM [rising, partial curve, poor fit] | 2 µM [falling, partial curve]
COc1ccc(CCn2c(O)c(C=NCCCO)c(=O)[nH]c2=O)cc1OC | 5.62 µM [rising, single point] | 
O=C(c1cc(C(=O)NCc2ccccc2)c(=O)n(Cc2ccccc2)c1)c1cc(Cl)ccc1O | 17.8 µM [rising, partial curve] | 
CN1[C@@H](CC(=O)c2ccccc2)CCC[C@H]1C[C@H](O)c1ccccc1 | 0.631 µM [rising, full curve, poor fit] | 708 nM [falling, single point] and 3.98 nM [rising, full curve, poor fit]
N#CC1=C(N)Oc2c(c(=O)oc3ccccc23)C1c1ccccc1OC(=O)c1cccs1 (stereo not given) | 35.5 µM [falling, single point] | 15.8 µM [falling, partial curve]
CC(C)CCC1(CN2CCCC2=O)C(=O)NC(=O)NC1=O | 35.5 µM [falling, partial curve, poor fit] | 
COc1ccc(/C=N/N=C(/N)N[N+](=O)[O-])c(OC)c1 | 1.26 µM [falling, full curve, poor fit] | 
Cc1cccc(N(C)S(=O)(=O)c2cc(-c3cnc(C4CC4)o3)ccc2C)c1 | 14.1 µM [rising, single point] | 12.6 µM [rising, single point]
O=C1NC(=O)N(Cc2ccco2)C(=O)/C1=C/c1cccn1CCOc1ccccc1Cl | 22.4 µM [falling, partial curve, poor fit] | 25.1 µM [falling, partial curve, poor fit]
COC(=O)NC(=S)Nc1ccccc1NC(=S)NC(=O)OC | 35.5 µM [rising, single point] | 22.4 µM [rising, single point]
CC(C)(C)NC[C@H](O)c1cc(Cl)c(N)c(Cl)c1 | 0.00501 µM [falling, full curve, poor fit] | 0.00224 µM [falling, full curve, poor fit]
CCN1C[C@]2(COC)[C@H](O)C[C@H](OC)[C@]34C1C([C@H](OC)[C@H]23)[C@]1(OC(C)=O)C2[C@@H](OC(=O)c3ccccc3)C(O)(C[C@H]24)[C@@H](OC)[C@@H]1O | 11.2 µM [falling, single point] | 15.8 µM [falling, single point]

Individual results from the results shown:
In AC50 [2], O=C1NC(=O)N(Cc2ccco2)C(=O)/C1=C/c1cccn1CCOc1ccccc1Cl shows 25.1 µM [falling, partial curve, poor fit]
In AC50 [2], N#CC1=C(N)Oc2c(c(=O)oc3ccccc23)C1c1ccccc1OC(=O)c1cccs1 (stereo not given) shows 15.8 µM [falling, partial curve]

Source: PubChem BioAssay AID1487 (National Center for Advancing Translational Sciences (NCATS), 2009)
